At least one compound was matched to its structure with a doubt left.
How the values were obtained:
Cynomolgus monkey iPSCs = experiment: Cell cycle analysis of Cynomolgus monkey iPSCs (flow cytometry); assay type: cell-based; settings: monkey cells, 30 nM
Experimental: (§1) For the analysis of the cell cycle, monkey stem cells were detached with Accutase (Stem Cell Technologies) and plated at 15000 cells/cm2 in 6 well plates coated with Matrigel (BD Biosciences) in MT medium supplemented with 10 ng/ml ActivinA, 15 ng/ml FGF2, and 10 μM Rock inhibitor. Cells were expanded for 1 day and then synchronized by starvation for 7 h in MT medium without supplements FGF2 and ActivinA. Before flow cytometry, cells were incubated for 24 h with fresh MT medium containing supplements FGF2 and ActivinA and test items at 80 nM, 400 nM, and 2000 nM or 30 nM rapamycin as positive control to arrest cells in G1 phase. Human stem cells were detached with Accutase (Stem Cell Technologies) and plated at 40000 cells/cm2 in 6 well plates coated with Matrigel (BD Biosciences) in mTeSR1 supplemented with 10 μM Rock Inhibitor Y-27632 (Sigma-Aldrich). Cells were expanded for 3 days with daily medium change. […]
(§2) For cell cycle analysis, human iPSCs were washed with PBS, detached with Accutase (Stem Cell Technologies) and collected by centrifugation. […] Flow cytometry analysis was performed using a Canto II cytometer (BD Biosciences) and data were analysed with the FlowJo software.

human iPSCs = experiment: Cell cycle analysis of human iPSCs (flow cytometry); assay type: cell-based; settings: human cells, 30 nM
Experimental: as §1, §2

Q: Which results are given for `CO[C@H]1C[C@@H]2CC[C@@H](C)[C@@](O)(O2)C(=O)C(=O)N2CCCC[C@H]2C(=O)O[C@H]([C@H](C)C[C@@H]2CC[C@@H](O)[C@H](OC)C2)CC(=O)[C@H](C)/C=C(\C)[C@@H](O)[C@@H](OC)C(=O)[C@H](C)C[C@H](C)/C=C/C=C/C=C/1C` [Rapamycin, reference compound]?
A: effect on cell cycle (Cynomolgus monkey iPSCs): arrest of human and monkey cells in G1 phase; effect on cell cycle (human iPSCs): arrest of human and monkey cells in G1 phase

— patent US12350273B2, “Treatment of SMA” (Hoffmann-La Roche Inc., priority 2017, dated 2025)
